Measurements taken from PubChem BioAssay AID248 (DTP/NCI, 2004).
The list is a part of this screen's results and no random one: it is rich in T/C values a quarter to a half above the control, in often repeated tests (any T/C) and in doses without a T/C. Other doses and runs of a compound stand elsewhere. T/C is the treated group as % of the vehicle group. Some entries give survivors of the animals treated and no T/C: the source holds a T/C of zero for them, seemingly a mark for toxic or unscored doses. Some survivor counts are full or nearly so, which does not show that the dose was tolerated: the source hardly ever lists a survival T/C far under the control, and the zero likely stands for such cases as well. Counts of survivors are from the toxicity check (mostly the fifth day) where no day follows; animals may have died later. Schedules are NCI's codes, read here as Q, the interval in days (D) or hours (H), X, the number of doses. Some schedules carry Z or #; the key to these is not given. Some entries were tested several times; the values are given in rising order. Where survival is the endpoint, this PubChem deposit counts one and a half times the control or more as active, and values a quarter to a half above the control carry no call in these data; other NCI protocols may use other cut-offs.

System: L1210 leukemia ip in BDF1 mice, survival T/C
Experiment: NCI In Vivo Anticancer Drug Screen. Data for tumor model L1210 Leukemia (intraperitoneal) in B6D2F1 (BDF1) mice
Conditions: T/C endpoint: mean survival time, higher T/C = longer survival
[1] = dose: 400.0 mg/kg/injection, schedule: Q01DX001 (ip), vehicle: saline
[2] = dose: 400.0 mg/kg/injection, schedule: Q01DX009 (ip), vehicle: Klucel (hydroxypropylcellulose) (HPC)
[3] = dose: 80.0 mg/kg/injection, schedule: Q01DX001 (ip), vehicle: saline

For CS(=O)(=O)OCCC(=O)NCNC(=O)CCOS(C)(=O)=O, the T/C (dose: 12.3 mg/kg/injection, schedule: Q01DX Z (ip), vehicle: carboxymethylcellulose (CMC)) was 129 % of control, the T/C (dose: 16.0 mg/kg/injection, schedule: Q01DX Z (ip), vehicle: carboxymethylcellulose (CMC)) was 125 % of control and the T/C (dose: 24.0 mg/kg/injection, schedule: Q01DX Z (ip), vehicle: carboxymethylcellulose (CMC)) was 136 % of control. For the same compound, the T/C (dose: 28.0 mg/kg/injection, schedule: Q01DX Z (ip), vehicle: carboxymethylcellulose (CMC)) was 148 % of control, the T/C (dose: 36.0 mg/kg/injection, schedule: Q01DX Z (ip), vehicle: carboxymethylcellulose (CMC)) was 141 and 145 % of control and the T/C (dose: 42.0 mg/kg/injection, schedule: Q01DX Z (ip), vehicle: carboxymethylcellulose (CMC)) was 136 % of control. For the same compound, the T/C (dose: 54.0 mg/kg/injection, schedule: Q01DX Z (ip), vehicle: carboxymethylcellulose (CMC)) was 125 % of control, the T/C (dose: 61.0 mg/kg/injection, schedule: Q01DX Z (ip), vehicle: carboxymethylcellulose (CMC)) was 134 % of control and the T/C (dose: 63.0 mg/kg/injection, schedule: Q01DX Z (ip), vehicle: carboxymethylcellulose (CMC)) was 140 % of control. The survivor count (dose: 120.0 mg/kg/injection, schedule: Q01DX Z (ip), vehicle: carboxymethylcellulose (CMC)) was 6 of 6, the survivor count (dose: 135.0 mg/kg/injection, schedule: Q01DX Z (ip), vehicle: carboxymethylcellulose (CMC)) was 5 of 6 and the survivor count (dose: 180.0 mg/kg/injection, schedule: Q01DX Z (ip), vehicle: carboxymethylcellulose (CMC)) was 3 of 6.
O=C(O)c1cccc(F)c1.[Ni] was tested, and the survivor count (dose: 100.0 mg/kg/injection, schedule: Q04DX002 (ip), vehicle: gum acacia) was 3 of 3, the survivor count (dose: 200.0 mg/kg/injection, schedule: Q04DX002 (ip), vehicle: gum acacia) was 2 of 3 and the survivor count (dose: 400.0 mg/kg/injection, schedule: Q04DX002 (ip), vehicle: gum acacia) was 0 of 3.
For CC1=C/C(=N/Nc2ccc([N+](=O)[O-])cc2[N+](=O)[O-])CCC1, the survivor count (dose: 200.0 mg/kg/injection, schedule: Q01DX009 (ip), vehicle: acetone) was 4 of 6.
For O=C1c2ccccc2C(=O)c2c(Nc3ccc(S(=O)(=O)N(CCO)CCO)cc3)ccc(O)c21, the survivor count [1] was 1 of 6.
In the case of CC(=O)Nc1ccccc1C(=NC1CCCC1)C(=O)NC1CCCC1, the survivor count (dose: 25.0 mg/kg/injection, schedule: Q01DX009 (ip), vehicle: Klucel (hydroxypropylcellulose) (HPC)) is reported as 5 of 6, the survivor count (dose: 50.0 mg/kg/injection, schedule: Q01DX009 (ip), vehicle: Klucel (hydroxypropylcellulose) (HPC)) is reported as 0 of 6 and the survivor count (dose: 100.0 mg/kg/injection, schedule: Q01DX009 (ip), vehicle: Klucel (hydroxypropylcellulose) (HPC)) is reported as 0 of 6 and 6 of 6. For the same compound, the survivor count (dose: 200.0 mg/kg/injection, schedule: Q01DX009 (ip), vehicle: Klucel (hydroxypropylcellulose) (HPC)) was 6 of 6.
COc1nc(Cl)nc2c1c(C#N)cn2C1OC(CO)C(O)C1O (centres undefined) was tested, and the survivor count (dose: 200.0 mg/kg/injection, schedule: Q01DX005 (ip), vehicle: saline) was 6 of 6.
For CCCCCCC[n+]1ccc(C#N)cc1, the survivor count (dose: 150.0 mg/kg/injection, schedule: Q01DX001 (ip), vehicle: saline) was 1 of 6 and the survivor count (dose: 300.0 mg/kg/injection, schedule: Q01DX001 (ip), vehicle: saline) was 0 of 6.
With Cc1ccc(C(C)C)cc1OCO the survivor count (dose: 45.0 mg/kg/injection, schedule: Q01DX Z (ip), vehicle: methylcellulose (MC)) was 3 of 6.
Cc1nc(N)[nH]c(=O)c1CCC(=O)O was tested, and the survivor count (dose: 200.0 mg/kg/injection, schedule: Q04DX003 (ip), vehicle: saline) was 2 of 6.
For Cc1ccc(CS)cc1, the survivor count [2] was 4 of 6.
With c1cc(-c2ccc(C3=NCCN3)cc2)ccc1C1=NCCN1 the survivor count (dose: 120.0 mg/kg/injection, schedule: Q01DX Z (ip), vehicle: saline) was 0 of 6.
CCC(=O)C(CCCN(C)C)(c1ccccc1)c1ccccc1 was tested, and the survivor count [3] was 0 of 6, the survivor count (dose: 100.0 mg/kg/injection, schedule: Q01DX001 (ip), vehicle: saline) was 0 of 6 and the survivor count (dose: 200.0 mg/kg/injection, schedule: Q01DX001 (ip), vehicle: saline) was 0 of 6. For the same compound, the survivor count [1] was 0 of 6.
With CC1CN=C(c2ccc(O)cc2)S1 (centres undefined) the survivor count (dose: 400.0 mg/kg/injection, schedule: Q01DX005 (ip), vehicle: saline) was 3 of 3.
CN1CCC23c4ccccc4NC1C21CCN(C)C3Nc2ccccc21 was tested, and the survivor count (dose: 100.0 mg/kg/injection, schedule: Q01DX Z (ip), vehicle: saline) was 0 of 6 and the survivor count [2] was 0 of 6.
In the case of O=C(Nc1ccc(Cl)cc1)Oc1ccc(Cl)cc1Cl, the survivor count (dose: 12.5 mg/kg/injection, schedule: Q01DX009 (ip), vehicle: DMSO) is reported as 5 of 6, the survivor count (dose: 50.0 mg/kg/injection, schedule: Q01DX009 (ip), vehicle: DMSO) is reported as 2 of 3 and the survivor count (dose: 100.0 mg/kg/injection, schedule: Q01DX009 (ip), vehicle: DMSO) is reported as 1 of 3. For the same compound, the survivor count (dose: 100.0 mg/kg/injection, schedule: Q04DX002 (ip), vehicle: DMSO) was 3 of 3, the survivor count (dose: 200.0 mg/kg/injection, schedule: Q01DX009 (ip), vehicle: DMSO) was 0 of 3 and the survivor count (dose: 400.0 mg/kg/injection, schedule: Q04DX002 (ip), vehicle: DMSO) was 0 of 3.
For CC(=O)C1C=NCC(C)(C)N=CC(C(C)=O)C(C)=NCCCN=C1C.[Ni] (centres undefined), the survivor count (dose: 100.0 mg/kg/injection, schedule: Q04DX003 (ip), vehicle: Klucel (hydroxypropylcellulose) (HPC)) was 2 of 6, the survivor count (dose: 200.0 mg/kg/injection, schedule: Q04DX003 (ip), vehicle: Klucel (hydroxypropylcellulose) (HPC)) was 1 of 6 and the survivor count (dose: 400.0 mg/kg/injection, schedule: Q04DX003 (ip), vehicle: Klucel (hydroxypropylcellulose) (HPC)) was 0 of 6.
CC(=O)Oc1cc(OC(C)=O)c2ccccc2c1OC(C)=O was tested, and the survivor count (dose: 12.5 mg/kg/injection, schedule: Q04DX003 (ip), vehicle: Klucel (hydroxypropylcellulose) (HPC)) was 6 of 6, the survivor count (dose: 25.0 mg/kg/injection, schedule: Q04DX003 (ip), vehicle: Klucel (hydroxypropylcellulose) (HPC)) was 6 of 6 and the survivor count (dose: 50.0 mg/kg/injection, schedule: Q04DX003 (ip), vehicle: Klucel (hydroxypropylcellulose) (HPC)) was 3 of 6. For the same compound, the survivor count (dose: 100.0 mg/kg/injection, schedule: Q01DX001 (ip), vehicle: Klucel (hydroxypropylcellulose) (HPC)) was 2 of 6, the survivor count (dose: 200.0 mg/kg/injection, schedule: Q01DX001 (ip), vehicle: Klucel (hydroxypropylcellulose) (HPC)) was 1 of 6 and the survivor count (dose: 400.0 mg/kg/injection, schedule: Q01DX001 (ip), vehicle: Klucel (hydroxypropylcellulose) (HPC)) was 0 of 6.
In the case of CN(CCc1ccccc1)/N=N/c1nc[nH]c1C(N)=O, the T/C (dose: 75.0 mg/kg/injection, schedule: Q01DX009 (ip), vehicle: saline with Tween-80) is reported as 144 % of control, the T/C (dose: 264.0 mg/kg/injection, schedule: Q04DX003 (ip), vehicle: saline with Tween-80) is reported as 128 and 148 % of control and the T/C (dose: 400.0 mg/kg/injection, schedule: Q04DX003 (ip), vehicle: saline with Tween-80) is reported as 133 % of control.
CN1CCN(CCC=C2c3ccccc3Sc3ccc(S(=O)(=O)N(C)C)cc32)CC1 was tested, and the survivor count (dose: 25.0 mg/kg/injection, schedule: Q01DX009 (ip), vehicle: saline) was 6 of 6, the survivor count (dose: 50.0 mg/kg/injection, schedule: Q01DX009 (ip), vehicle: saline) was 6 of 6 and the survivor count (dose: 100.0 mg/kg/injection, schedule: Q01DX009 (ip), vehicle: saline) was 2 of 6. The survivor count (dose: 200.0 mg/kg/injection, schedule: Q01DX009 (ip), vehicle: saline) was 1 of 6 and the survivor count (dose: 400.0 mg/kg/injection, schedule: Q04DX003 (ip), vehicle: saline) was 4 of 4.
For N#CC(OC(=O)c1ccccc1)c1ccccc1 (centres undefined), the survivor count (dose: 300.0 mg/kg/injection, schedule: Q01DX001 (ip), vehicle: other) was 2 of 6.
C#CC(OC(=O)N(C)C)(c1ccccc1)c1ccc(F)cc1 (centres undefined) was tested, and the survivor count [3] was 3 of 6.
In the case of COc1cccc2c1C(=O)c1c(O)c3c(c(O)c1C2=O)C[C@@](O)(C(=O)COC(=O)Cc1ccccc1)C[C@@H]3OC1CC(N)C(O)C(C)O1 (some centres undefined), the T/C (dose: 0.57 mg/kg/injection, schedule: Q01DX009 (ip), vehicle: saline with Tween-80) is reported as 131 % of control, the T/C (dose: 0.85 mg/kg/injection, schedule: Q01DX009 (ip), vehicle: saline with Tween-80) is reported as 140 % of control and the T/C (dose: 4.4 mg/kg/injection, schedule: Q01DX009 (ip), vehicle: saline with Tween-80) is reported as 144 % of control.
In the case of CN(C)Cc1cc(C(C)(C)CC(C)(C)C)cc(CN(C)C)c1O, the survivor count [2] is reported as 0 of 6.
